The name of at least one read-out is uncertain.
Assay: Solubility in 40% w/w cyclodextrin solutions versus potassium phosphate buffer
Type: physicochemical
Method: (§1) Aqueous solutions of cyclodextrin at pH 6.7-7.2 were prepared by dissolving 4 parts of cyclodextrins (hydroxypropyl α-cyclodextrin (HPACD), hydroxypropyl β-cyclodextrin (HPBCD), β-cyclodextrin (BCD), hydroxypropyl γ-cyclodextrin (HPGCD), or CAPTISOL) in 6 parts of potassium phosphate buffer (50 mM KH2PO4, pH 7.0), resulting solutions of 40% w/w cyclodextrins.
as §1, with “(HPBCD),” for “(HPBCD), β-cyclodextrin (BCD),”

Nc1ncn([C@H]2C[C@H](O)[C@@H](CO)O2)c(=O)n1 [decitabine, 5-aza-2′-deoxycytidine]
Increase of solubility with cyclodextrins as excipients in aqueous solution: more than two fold
